The supplement of paper PMC12009310
Where a name gives a salt, the structure may show the parent alone. ± gives the standard deviation of the averaged measurements. This is one part of the list. Plates or batches differ in their baseline, so values are only roughly comparable.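 The cells are a mouse kidney inner medullary collecting duct line, silenced either for the ciliary gene Rpgrip1l or with a non-targeting control siRNA.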

Experiments:
mIMCD3 [1] = assay: robust z score of cell number vs plate controls; higher = more cells (less cytotoxic); details: 10 µM, 48 h
mIMCD3 [2] = assay: robust z score of cilia incidence (% cells with single cilium) vs plate controls; higher = more ciliated cells; details: 10 µM; 48 h; siRNA: siScr
mIMCD3 [3] = assay: robust z score of cilia incidence (% cells with single cilium) vs plate controls; higher = more ciliated cells (rescue of cilia loss); details: 10 µM; 48 h; siRNA: siRpgrip1l

| SMILES | robust z score of cell number (mIMCD3 [1]; siRNA: siRpgrip1l) | robust z score of cell number (mIMCD3 [1]; siRNA: siScr) | robust z score of cilia incidence (mIMCD3 [2]) | robust z score of cilia incidence (mIMCD3 [3]) |
| --- | --- | --- | --- | --- |
| CN1CCc2cc(Cl)c(O)cc2[C@@H](c2ccccc2)C1 | -3.47 ± 0.34 | -0.836 ± 0.36 | -3.17 ± 0.39 | -7.72 ± 2.6 |
| CN(N=O)C(=O)N[C@@H](C=O)[C@@H](O)[C@H](O)[C@H](O)CO [Streptozocin] | -19.9 ± 26 | -0.217 ± 0.54 | -0.49 ± 0.66 | -129 ± 92 |
| COc1ccc(NS(=O)(=O)c2ccc(I)cc2)cc1N1CCN(C)CC1 | 4.68 ± 7.8 | -2.19 ± 0.9 | -8.75 ± 9.1 | -31.2 ± 26 |
| C1CCC(N=C(NC23CC4CC(CC(C4)C2)C3)N2CCOCC2)CC1 | -11.6 ± 3.4 | -22.2 ± 16 | -17.4 ± 1.8 | -44.5 ± 19 |
| CS(=O)(=O)c1ccc(-c2cc(Br)sc2-c2ccc(F)cc2)cc1 | -180 ± 200 | -37.6 ± 8.8 | -17.6 ± 5.5 | -347 ± 230 |
| C[C@@H](CN1CC(=O)NC(=O)C1)N1CC(=O)NC(=O)C1 [Dexrazoxane hydrochloride] | -54.5 ± 40 | -1.88 ± 1.6 | -3.85 ± 2.8 | -8.96 ± 2.6 |
| c1ccc(C(NCc2cccnc2)(c2ccccc2)c2ccccc2)cc1 | -32.6 ± 10 | -143 ± 110 | -67.1 ± 18 | -58.4 ± 6.4 |
| CC[C@H](C)C(=O)O[C@H]1C[C@@H](C)C=C2C=C[C@H](C)[C@H](CC[C@@H]3C[C@@H](O)CC(=O)O3)[C@H]21 [Lovastatin] | -128 ± 140 | -38.4 ± 9.1 | -37.9 ± 15 | -499 ± 330 |
| O=C(O)C1=CCCN(CCON=C(c2ccccc2)c2ccccc2)C1 | -2.56 ± 1.8 | -1.69 ± 2.5 | 1.76 ± 2.6 | -12.1 ± 3.2 |
| Nc1nc2c(cnn2CCc2ccccc2)c2nc(-c3ccco3)nn12 | -11.8 ± 4.6 | -8.49 ± 0.16 | -7.24 ± 9.3 | -20.8 ± 15 |
| CCOC(=O)C1=C(COCCN)NC(C)=C(C(=O)OC)C1c1ccccc1Cl (stereo not drawn) [Amlodipine besylate] | -32.9 ± 10 | -144 ± 110 | -61.5 ± 14 | -58.2 ± 4.8 |
| CN1CCN(CCc2ccc(Cl)c(Cl)c2)CC1 [BD 1063 dihydrochloride] | -27.37 ± 0.21 | -25.9 ± 14 | -40.8 ± 8.6 | -28.3 ± 5.6 |
| Cc1c(C(=O)NC2CCCCC2)sc2nc3ccc(N)cc3n12 | -10.4 ± 5.9 | -8.73 ± 1.2 | -19 ± 19 | -20.9 ± 12 |
| Nc1ncnc2c1ncn2[C@@H]1O[C@H](CO)C[C@H]1O [Cordycepin] | -20.6 ± 10 | -17.7 ± 2.6 | -12.7 ± 14 | -25.6 ± 16 |
| CCN(CC)CCOC(=O)c1cc(Cl)c(N)cc1OC [SDZ 205-557 hydrochloride] | -2.19 ± 2.8 | 1.31 ± 1.8 | -0.101 ± 1.1 | -14.5 ± 15 |
| N[C@@H](CSS(=O)(=O)O)C(=O)O [S-Sulfo-L-cysteine sodium salt] | 6.94 ± 7.5 | 1.99 ± 5.3 | -1.43 ± 2 | -4.84 ± 1.8 |

| SMILES | robust z score of cell number (mIMCD3 [1]; siRNA: siRpgrip1l) | robust z score of cell number (mIMCD3 [1]; siRNA: siScr) | robust z score of cilia incidence (mIMCD3 [2]) | robust z score of cilia incidence (mIMCD3 [3]) |
| --- | --- | --- | --- | --- |
| Cc1cc(/C(=C/Nc2ccc(Cl)cc2)C(=O)Nc2ccc(Cl)cc2)on1 | -27 ± 21 | -26.3 ± 6.1 | -18.3 ± 8.8 | -19.6 ± 6.5 |
| COc1cc(-c2ccc(=O)[nH]n2)ccc1OC(F)F [Zardaverine] | -12.5 ± 13 | -2.91 ± 1.7 | 1.21 ± 2.3 | -10.8 ± 1.6 |
| CCCn1c(=O)c2[nH]c(C3CCCC3)nc2n(CCC)c1=O | 2.17 ± 0.91 | -8.63 ± 3 | 2.19 ± 0.062 | -4.3 ± 2.4 |
| O=C(O)CC/C=C\C[C@H]1CO[C@@H](c2ccccc2Cl)O[C@H]1c1ccccc1O | -2.96 ± 0.54 | -5.59 ± 0.46 | 0.473 ± 0.67 | -3.98 ± 2.9 |
| CCC(CC)(CC(=O)Nc1cccc(/C=C/c2nc(C3CCC3)cs2)c1)C(=O)O [Cinalukast] | -19.4 ± 12 | -24.3 ± 13 | 3.6 ± 6.8 | -12.4 ± 16 |
| CCCCCCNC(=O)Nc1ccc(S(=O)(=O)Nc2ccc(CCNC[C@H](O)COc3ccc(O)cc3)cc2)cc1 | -30.8 ± 19 | -35.5 ± 27 | -4.91 ± 5.9 | -34.7 ± 14 |
| O=C(O)Cc1cccc(OCCCN(Cc2cccc(C(F)(F)F)c2Cl)CC(c2ccccc2)c2ccccc2)c1 [GW 3965 hydrochloride] | -32.5 ± 11 | -139 ± 100 | -66.7 ± 15 | -58.5 ± 8.3 |
| NCCCCNCCCN [Spermidine trihydrochloride] | -5.58 ± 0.2 | -3.05 ± 3.2 | -4.52 ± 4.1 | -10.6 ± 2 |
| CCN(CC)c1ccc(/C=N/NC(=O)c2ccc(O)cc2)cc1 | -24.4 ± 11 | -20.7 ± 1.4 | -35.3 ± 30 | -30.9 ± 17 |
| CC1=C(/C=C/C(C)=C/C=C/C(C)=C/C(=O)O)C(C)(C)CCC1 [Retinoic acid] | -4.13 ± 6.9 | -0.116 ± 0.34 | -1.43 ± 2.5 | -9.13 ± 3.9 |
| O=C1CC2(CCCC2)CC(=O)N1CCCCNCC1COc2ccccc2O1 (stereo not drawn) | -33.9 ± 24 | -33.9 ± 29 | -10.6 ± 3.8 | -24.9 ± 14 |
| COCCOC(=O)C1=C(C)NC(C)=C(C(=O)OC(C)C)C1c1cccc([N+](=O)[O-])c1 (stereo not drawn) [Nimodipine] | -11 ± 9.3 | -20.1 ± 25 | 1.09 ± 0.52 | -2.29 ± 5.2 |
| CCC(=O)OCN1C(=O)C=CC1=O | -22.1 ± 29 | -1.95 ± 1.2 | 1.09 ± 0.57 | -8.14 ± 8.4 |
| COc1c(C)c2c(c(O)c1C/C=C(\C)CCC(=O)O)C(=O)OC2 [Mycophenolic acid] | -192 ± 220 | -44.7 ± 11 | -42.1 ± 11 | -538 ± 300 |
| O=C(NCCN1CCCCC1)c1ccc(I)cc1 [N-[2-(Piperidinylamino)ethyl]-4-iodobenzamide] | -1.02 ± 1.7 | -3.32 ± 0.15 | -5.78 ± 2.2 | -9.83 ± 0.85 |
| O=[N+]([O-])c1cc2nc(O)c(O)nc2cc1[N+](=O)[O-] | 0.0604 ± 3.2 | 1.3 ± 2.3 | 0.373 ± 0.91 | -8.97 ± 8.1 |
